# Experimental data reported in patent US4880781 (dated 1989).
# Square brackets hold non-standard residues; d marks the D form. * marks the point of attachment. Sta = CC(C)C[C@H](N)[C@@H](O)CC(=O)O; Boc = CC(C)(C)OC(=O)*
# Experiment: general procedure: Boc solid-phase peptide synthesis; p-methylbenzhydrylamine resin; DCC/HOBT; BOP for Boc-His(Tos)
# Details: coupling step
row,Substance,step yield [%]
1,N-tert-Butyloxycarbonyl-α-methyl-L-prolyl-L-phenylalanyl-N^in -tosyl-L-histidyl-5S-amino-4S-hydroxy-2S-isopropyl-7-methyl-octanoyl-L-iso leucyl-2-pyridylmethylamide,82
2,N-tert-Butyloxycarbonyl-L-prolyl-L-phenylalanyl-N^α -methyl-N^im -tosyl-L-histidyl-5S-amino-4S-hydroxy-2S-isopropyl-7-methyl-octanoyl-L-iso leucyl-2-pyridylmethylamide,69
3,N-tert-Butyloxycarbonyl-Nα-methyl-N^im -tosyl-L-histidyl-5S-amino-2S-isopropyl-7-methyl-4S-tert-butyldimethylsily loxy-octanoyl-L-isoleucyl-2-pyridylmethylamide,84
4,O-acetyl-L-phenyllactyl-His-Sta-Ile-Phe-OCH3,73
5,N-tert-Butyloxycarbonyl-N^in -tosyl-L-histidyl-5S-amino-2S-isopropyl-7-methyl-4S-tert-butyldimethylsily loxy-octanoyl-L-isoleucyl-2-pyridylmethylamide,84
6,Boc-His-(Tos)-Sta-Ile-Phe-OCH3,93
7,O-acetyl-L-phenyllactyl-His-Sta-Ile-AMP,58
8,N-tert-Butyloxycarbonyl-L-phenylalanyl-N^α -methyl-N^im -tosyl-L-histidyl-5S-amino-4S-hydroxy-2S-isopropyl-7-methyl-octanoyl-L-iso leucyl-2-pyridylmethylamide,64
9,O-tert-butylacetyl-L-phenyllactyl-His-Sta-Ile-AMP,24
10,L-Phenyllactyl-His-Sta-Ile-AMP,55

# Same assay, conditions: late stage modification step
row,Substance,step yield [%]
1,N-tert-Butyloxycarbonyl-L-prolyl-L-phenylalanyl-N^α -methyl-L-histidyl-5S-amino-4S-hydroxy-2S-isopropyl-7-methyl-octanoyl-L-is oleucyl-2-pyridylmethylamide,90
2,Boc-H[Sta]IF-OMe,89
3,N-tert-Butyloxycarbonyl-α-methyl-L-prolyl-L-phenylalanyl-L-histidyl-5 S-amino-4S-hydroxy-2S-isopropyl-7-methyl-octanoyl-L-isoleucyl-2-pyridylmet hylamide,91
4,N-tert-Butyloxycarbonyl-L-phenylalanyl-N^α -methyl-L-histidyl-5S-amino-4S-hydroxy-2S-isopropyl-7-methyl-octanoyl-L-is oleucyl-2-pyridylmethylamide,94

# Same assay, conditions: late stage modification step, λ 225
row,Substance,final HPLC purity [%]
1,Boc-PEP-His(Tos)LVA-Ile-AMP,100
